{"source": "PubChem BioAssay AID504774 (Drosophila RNAi Screening Center, 2011)", "screen": "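Knock-downs that shift viability of MMS-exposed cells relative to untreated ones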 (primary screen)", "cells": "Drosophila Kc167 cells", "reagent": "long dsRNA against Drosophila genes, about 0.25 µg dsRNA per well", "time to read-out": "about 6 days: 3 days knock-down, then 3 days with or without MMS", "conditions": "methyl methanesulphonate 0.004% (w/v) for 3 days after knock-down", "read-out": "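ATP-dependent luminescence as a measure of live cells in MMS-exposed wells, quantile normalised within each plate, with replicate values also given as a mean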", "reading the numbers": "mean viability with MMS: higher = more surviving cells after MMS", "note": "The deposit covers about 23,000 reagents; this is a random part of those with a known target gene and a result. 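Values are quantile-normalised luminescence on an arbitrary scale; higher means more cells surviving MMS.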 A plus sign joins genes that one reagent is predicted to hit. Not all columns of the deposit are shown. Reagent sequences are not shown."}
The opening 3 entries as a preview:
{"target":"fat-spondin","DRSC id":"DRSC07617","mean viability with MMS":4.03e6}
{"target":"CG34323","DRSC id":"DRSC18916","mean viability with MMS":3.63e6}
{"target":"CG6154","DRSC id":"DRSC15977","mean viability with MMS":3.38e6}

Main list, from the start:
{"target":"fat-spondin","DRSC id":"DRSC07617","mean viability with MMS":4.03e6}
{"target":"CG34323","DRSC id":"DRSC18916","mean viability with MMS":3.63e6}
{"target":"CG6154","DRSC id":"DRSC15977","mean viability with MMS":3.38e6}
{"target":"CG10185","DRSC id":"DRSC14205","mean viability with MMS":3.64e6}
{"target":"blot (bloated tubules)","DRSC id":"DRSC09485","mean viability with MMS":3.73e6}
{"target":"blot (bloated tubules)","DRSC id":"DRSC11328","mean viability with MMS":3.68e6}
{"target":"CG31431","DRSC id":"DRSC14589","mean viability with MMS":3.52e6}
{"target":"Cdc2rk (Cdc2-related kinase)","DRSC id":"DRSC07590","mean viability with MMS":3.53e6}
{"target":"Blos3","DRSC id":"DRSC09573","mean viability with MMS":1.69e6}
{"target":"CG2608","DRSC id":"DRSC02709","mean viability with MMS":3.15e6}
{"target":"Gr9a (Gustatory receptor 9a)","DRSC id":"DRSC22506","mean viability with MMS":3.65e6}
{"target":"CG33469","DRSC id":"DRSC22900","mean viability with MMS":3.54e6}
{"target":"Sk1 (Sphingosine kinase 1)","DRSC id":"DRSC19774","mean viability with MMS":3.37e6}
{"target":"Mtp (Microsomal triacylglycerol transfer protein)","DRSC id":"DRSC03216","mean viability with MMS":3.50e6}
{"target":"Aasdh (Aminoadipate-semialdehyde dehydrogenase)","DRSC id":"DRSC03467","mean viability with MMS":3.37e6}
{"target":"CG4704","DRSC id":"DRSC15628","mean viability with MMS":3.56e6}
{"target":"CG34282","DRSC id":"DRSC16298","mean viability with MMS":3.59e6}
{"target":"CG31775 + CG42586","DRSC id":"DRSC22289","mean viability with MMS":3.69e6}
{"target":"CG31775 + CG42586","DRSC id":"DRSC23266","mean viability with MMS":3.66e6}
{"target":"Swim (Secreted Wg-interacting molecule)","DRSC id":"DRSC04334","mean viability with MMS":3.54e6}
{"target":"CG13872","DRSC id":"DRSC06431","mean viability with MMS":3.47e6}
{"target":"Npc1b (Niemann-Pick type C-1b)","DRSC id":"DRSC20488","mean viability with MMS":3.46e6}
{"target":"ric8a","DRSC id":"DRSC18093","mean viability with MMS":3.55e6}
{"target":"hook","DRSC id":"DRSC03545","mean viability with MMS":3.57e6}
{"target":"whd (withered)","DRSC id":"DRSC07351","mean viability with MMS":3.53e6}
{"target":"CG13021","DRSC id":"DRSC17893","mean viability with MMS":3.40e6}
{"target":"Ucp4C (Uncoupling protein 4C)","DRSC id":"DRSC03132","mean viability with MMS":3.61e6}
{"target":"Tsp42Ee (Tetraspanin 42Ee)","DRSC id":"DRSC05947","mean viability with MMS":3.61e6}
{"target":"CG10663","DRSC id":"DRSC09770","mean viability with MMS":3.31e6}
{"target":"dpr18 (defective proboscis extension response 18)","DRSC id":"DRSC19606","mean viability with MMS":3.54e6}
{"target":"GABA-B-R3 (metabotropic GABA-B receptor subtype 3)","DRSC id":"DRSC00561","mean viability with MMS":3.56e6}
{"target":"Tsen34 (tRNA splicing endonuclease subunit 34)","DRSC id":"DRSC22932","mean viability with MMS":3.62e6}
{"target":"Phf7 (PHD finger protein 7)","DRSC id":"DRSC20692","mean viability with MMS":3.60e6}
{"target":"Dh44-R2 (Diuretic hormone 44 receptor 2)","DRSC id":"DRSC06141","mean viability with MMS":3.55e6}
{"target":"Dh44-R2 (Diuretic hormone 44 receptor 2)","DRSC id":"DRSC06281","mean viability with MMS":3.60e6}
